# In the supplement of paper PMC10849652:
# Chains of the proteins cited; added tags and fusions are not shown. Lines headed by an entry give the natural chain unless they say otherwise; changes in a name come on top.
# UniProt P42166: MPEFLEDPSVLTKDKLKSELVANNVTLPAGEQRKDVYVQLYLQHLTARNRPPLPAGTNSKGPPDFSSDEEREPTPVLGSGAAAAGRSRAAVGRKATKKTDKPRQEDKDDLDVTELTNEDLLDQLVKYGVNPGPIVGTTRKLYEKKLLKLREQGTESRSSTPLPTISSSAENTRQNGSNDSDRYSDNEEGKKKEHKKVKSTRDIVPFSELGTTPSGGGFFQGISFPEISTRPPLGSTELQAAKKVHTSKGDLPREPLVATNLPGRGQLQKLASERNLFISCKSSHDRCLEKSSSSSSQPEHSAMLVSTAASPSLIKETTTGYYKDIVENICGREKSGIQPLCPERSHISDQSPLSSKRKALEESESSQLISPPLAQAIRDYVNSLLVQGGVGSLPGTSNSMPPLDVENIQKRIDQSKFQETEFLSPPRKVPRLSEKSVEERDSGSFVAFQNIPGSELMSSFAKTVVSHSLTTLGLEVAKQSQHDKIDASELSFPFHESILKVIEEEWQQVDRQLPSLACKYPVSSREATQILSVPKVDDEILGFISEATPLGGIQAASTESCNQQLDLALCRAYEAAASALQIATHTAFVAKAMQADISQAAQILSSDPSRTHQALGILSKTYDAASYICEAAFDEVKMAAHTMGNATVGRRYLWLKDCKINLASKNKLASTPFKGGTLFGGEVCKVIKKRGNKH
# UniProt Q9H3N1: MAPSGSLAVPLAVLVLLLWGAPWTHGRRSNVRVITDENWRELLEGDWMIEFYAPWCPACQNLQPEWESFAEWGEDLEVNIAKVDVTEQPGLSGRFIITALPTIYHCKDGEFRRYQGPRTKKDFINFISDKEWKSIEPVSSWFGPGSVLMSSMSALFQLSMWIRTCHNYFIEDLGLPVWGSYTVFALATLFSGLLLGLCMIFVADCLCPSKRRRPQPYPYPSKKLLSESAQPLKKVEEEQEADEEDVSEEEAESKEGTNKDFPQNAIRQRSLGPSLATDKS
# UniProt Q5U3C3: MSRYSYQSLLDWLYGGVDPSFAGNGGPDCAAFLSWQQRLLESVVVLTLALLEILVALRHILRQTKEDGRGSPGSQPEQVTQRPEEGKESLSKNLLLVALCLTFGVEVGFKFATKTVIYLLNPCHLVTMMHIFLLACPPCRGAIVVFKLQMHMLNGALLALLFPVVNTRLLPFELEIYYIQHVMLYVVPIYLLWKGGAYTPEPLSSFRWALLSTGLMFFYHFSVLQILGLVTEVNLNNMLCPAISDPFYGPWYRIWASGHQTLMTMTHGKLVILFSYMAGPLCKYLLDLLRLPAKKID
# UniProt Q6ZXV5: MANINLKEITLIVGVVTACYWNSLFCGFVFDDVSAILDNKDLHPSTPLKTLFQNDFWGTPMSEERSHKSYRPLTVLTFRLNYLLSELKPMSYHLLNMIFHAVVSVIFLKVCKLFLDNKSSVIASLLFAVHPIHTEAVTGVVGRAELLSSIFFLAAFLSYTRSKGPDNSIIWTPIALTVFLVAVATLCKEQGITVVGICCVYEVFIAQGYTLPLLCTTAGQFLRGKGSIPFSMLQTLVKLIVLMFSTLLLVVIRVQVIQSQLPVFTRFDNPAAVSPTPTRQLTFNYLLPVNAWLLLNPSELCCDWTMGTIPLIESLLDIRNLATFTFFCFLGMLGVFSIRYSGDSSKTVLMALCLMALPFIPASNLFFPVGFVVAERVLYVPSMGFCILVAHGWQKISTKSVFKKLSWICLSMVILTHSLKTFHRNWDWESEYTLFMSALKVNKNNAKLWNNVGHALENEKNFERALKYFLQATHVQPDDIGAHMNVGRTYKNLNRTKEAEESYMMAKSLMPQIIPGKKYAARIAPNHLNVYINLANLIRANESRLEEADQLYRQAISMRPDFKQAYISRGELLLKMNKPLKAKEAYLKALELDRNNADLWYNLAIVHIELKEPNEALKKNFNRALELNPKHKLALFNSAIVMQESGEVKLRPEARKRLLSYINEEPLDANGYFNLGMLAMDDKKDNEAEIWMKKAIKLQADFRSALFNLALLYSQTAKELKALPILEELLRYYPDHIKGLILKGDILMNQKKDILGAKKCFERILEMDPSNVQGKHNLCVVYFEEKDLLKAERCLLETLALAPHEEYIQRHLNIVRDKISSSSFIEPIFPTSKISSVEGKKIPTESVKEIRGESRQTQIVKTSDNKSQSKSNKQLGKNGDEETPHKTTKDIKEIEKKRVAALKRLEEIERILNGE
# UniProt Q04727: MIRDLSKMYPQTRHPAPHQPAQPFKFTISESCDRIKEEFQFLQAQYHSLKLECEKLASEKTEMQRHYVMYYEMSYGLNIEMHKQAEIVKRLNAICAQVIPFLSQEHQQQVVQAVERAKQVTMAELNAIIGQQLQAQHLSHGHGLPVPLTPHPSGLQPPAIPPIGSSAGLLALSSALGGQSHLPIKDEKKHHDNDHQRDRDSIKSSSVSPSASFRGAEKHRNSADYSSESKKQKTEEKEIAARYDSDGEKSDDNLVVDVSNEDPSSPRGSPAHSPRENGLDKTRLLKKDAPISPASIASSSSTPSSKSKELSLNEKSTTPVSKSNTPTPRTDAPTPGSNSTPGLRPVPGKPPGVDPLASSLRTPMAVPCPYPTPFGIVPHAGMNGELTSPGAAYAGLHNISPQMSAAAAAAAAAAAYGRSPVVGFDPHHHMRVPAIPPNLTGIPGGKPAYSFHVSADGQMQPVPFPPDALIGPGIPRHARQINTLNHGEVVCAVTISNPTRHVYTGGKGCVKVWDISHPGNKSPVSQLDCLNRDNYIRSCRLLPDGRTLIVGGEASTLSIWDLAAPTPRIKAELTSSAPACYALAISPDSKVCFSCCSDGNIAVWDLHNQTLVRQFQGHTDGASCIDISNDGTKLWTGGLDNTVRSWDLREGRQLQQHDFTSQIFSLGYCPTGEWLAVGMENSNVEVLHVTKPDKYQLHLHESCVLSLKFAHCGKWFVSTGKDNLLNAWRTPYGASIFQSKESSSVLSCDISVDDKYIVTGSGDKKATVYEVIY
# UniProt Q96K49: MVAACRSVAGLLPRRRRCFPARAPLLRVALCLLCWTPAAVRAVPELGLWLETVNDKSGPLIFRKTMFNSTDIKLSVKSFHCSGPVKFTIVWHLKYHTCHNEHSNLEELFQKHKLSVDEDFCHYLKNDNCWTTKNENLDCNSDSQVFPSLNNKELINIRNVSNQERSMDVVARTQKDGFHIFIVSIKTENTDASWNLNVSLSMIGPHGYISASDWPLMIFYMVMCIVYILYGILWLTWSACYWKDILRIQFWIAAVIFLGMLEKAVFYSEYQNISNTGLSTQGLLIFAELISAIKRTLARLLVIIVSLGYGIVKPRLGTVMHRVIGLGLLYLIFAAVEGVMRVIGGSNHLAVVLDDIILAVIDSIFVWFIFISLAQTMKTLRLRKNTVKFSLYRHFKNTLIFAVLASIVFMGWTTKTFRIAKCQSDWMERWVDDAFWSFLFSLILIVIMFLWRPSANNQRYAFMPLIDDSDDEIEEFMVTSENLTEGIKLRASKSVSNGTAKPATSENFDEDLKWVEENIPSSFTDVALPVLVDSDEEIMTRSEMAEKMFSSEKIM
# UniProt Q9UKI8: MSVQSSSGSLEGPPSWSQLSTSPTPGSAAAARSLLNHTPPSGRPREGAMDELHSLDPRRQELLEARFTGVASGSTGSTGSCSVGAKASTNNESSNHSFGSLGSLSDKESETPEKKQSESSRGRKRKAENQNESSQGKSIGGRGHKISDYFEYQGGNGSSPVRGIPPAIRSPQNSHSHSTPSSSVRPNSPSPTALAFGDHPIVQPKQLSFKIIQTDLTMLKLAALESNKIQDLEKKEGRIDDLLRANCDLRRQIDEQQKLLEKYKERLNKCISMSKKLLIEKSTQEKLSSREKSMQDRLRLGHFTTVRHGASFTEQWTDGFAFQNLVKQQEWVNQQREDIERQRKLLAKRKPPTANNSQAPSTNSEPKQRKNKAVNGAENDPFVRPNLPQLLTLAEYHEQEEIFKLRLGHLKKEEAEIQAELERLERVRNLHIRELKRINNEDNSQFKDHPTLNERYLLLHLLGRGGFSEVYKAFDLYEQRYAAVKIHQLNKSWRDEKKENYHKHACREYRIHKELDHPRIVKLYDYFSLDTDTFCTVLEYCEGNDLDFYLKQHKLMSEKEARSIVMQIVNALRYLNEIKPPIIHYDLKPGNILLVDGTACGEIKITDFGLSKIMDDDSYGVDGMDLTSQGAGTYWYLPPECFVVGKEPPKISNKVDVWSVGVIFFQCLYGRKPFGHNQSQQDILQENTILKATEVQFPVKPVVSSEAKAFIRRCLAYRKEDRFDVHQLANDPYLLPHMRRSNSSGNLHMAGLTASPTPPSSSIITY
# UniProt O95379: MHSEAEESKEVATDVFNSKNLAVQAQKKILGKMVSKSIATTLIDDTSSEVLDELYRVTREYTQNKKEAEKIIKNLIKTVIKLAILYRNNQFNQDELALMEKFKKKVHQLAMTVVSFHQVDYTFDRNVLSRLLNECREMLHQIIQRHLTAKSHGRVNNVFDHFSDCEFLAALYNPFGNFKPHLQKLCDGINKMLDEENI
# UniProt Q8IY95: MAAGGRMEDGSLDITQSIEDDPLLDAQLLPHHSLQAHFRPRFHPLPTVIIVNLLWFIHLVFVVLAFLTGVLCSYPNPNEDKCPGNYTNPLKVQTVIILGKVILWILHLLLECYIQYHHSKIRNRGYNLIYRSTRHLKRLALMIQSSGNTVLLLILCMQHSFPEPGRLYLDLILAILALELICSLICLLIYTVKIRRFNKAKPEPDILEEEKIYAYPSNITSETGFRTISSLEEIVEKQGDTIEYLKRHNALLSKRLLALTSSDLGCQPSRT
# UniProt A0PJW6: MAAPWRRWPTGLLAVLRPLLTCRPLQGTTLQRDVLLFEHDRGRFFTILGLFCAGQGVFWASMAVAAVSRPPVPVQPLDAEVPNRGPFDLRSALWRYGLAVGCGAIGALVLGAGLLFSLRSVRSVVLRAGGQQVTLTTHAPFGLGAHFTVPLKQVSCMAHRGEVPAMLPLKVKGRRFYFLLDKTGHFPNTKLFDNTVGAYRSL
# UniProt Q9NX61: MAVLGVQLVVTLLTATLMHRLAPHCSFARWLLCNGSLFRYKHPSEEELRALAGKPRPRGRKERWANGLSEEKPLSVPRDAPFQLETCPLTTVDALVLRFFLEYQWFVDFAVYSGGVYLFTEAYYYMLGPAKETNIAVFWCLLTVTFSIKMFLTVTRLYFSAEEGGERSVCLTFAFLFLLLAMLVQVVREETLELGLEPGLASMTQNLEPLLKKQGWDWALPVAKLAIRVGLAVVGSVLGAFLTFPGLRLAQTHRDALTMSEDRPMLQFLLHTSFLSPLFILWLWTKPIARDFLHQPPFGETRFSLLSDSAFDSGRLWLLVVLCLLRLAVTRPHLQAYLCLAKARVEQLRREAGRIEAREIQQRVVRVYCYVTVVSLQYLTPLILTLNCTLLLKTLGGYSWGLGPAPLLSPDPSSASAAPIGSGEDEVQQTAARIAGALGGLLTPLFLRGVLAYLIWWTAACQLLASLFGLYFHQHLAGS
# UniProt Q9NVA4: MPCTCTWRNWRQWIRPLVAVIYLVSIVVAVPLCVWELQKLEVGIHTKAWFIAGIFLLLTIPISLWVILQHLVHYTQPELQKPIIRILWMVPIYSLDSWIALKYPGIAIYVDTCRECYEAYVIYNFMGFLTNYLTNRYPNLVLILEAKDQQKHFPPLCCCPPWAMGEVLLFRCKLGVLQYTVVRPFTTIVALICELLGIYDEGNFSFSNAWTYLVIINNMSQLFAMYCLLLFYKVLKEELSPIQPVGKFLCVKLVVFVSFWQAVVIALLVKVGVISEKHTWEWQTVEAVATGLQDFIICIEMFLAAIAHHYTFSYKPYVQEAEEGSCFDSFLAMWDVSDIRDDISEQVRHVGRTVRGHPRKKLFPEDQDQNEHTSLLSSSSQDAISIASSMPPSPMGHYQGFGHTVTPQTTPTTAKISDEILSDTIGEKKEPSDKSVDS
# UniProt Q6UWJ1: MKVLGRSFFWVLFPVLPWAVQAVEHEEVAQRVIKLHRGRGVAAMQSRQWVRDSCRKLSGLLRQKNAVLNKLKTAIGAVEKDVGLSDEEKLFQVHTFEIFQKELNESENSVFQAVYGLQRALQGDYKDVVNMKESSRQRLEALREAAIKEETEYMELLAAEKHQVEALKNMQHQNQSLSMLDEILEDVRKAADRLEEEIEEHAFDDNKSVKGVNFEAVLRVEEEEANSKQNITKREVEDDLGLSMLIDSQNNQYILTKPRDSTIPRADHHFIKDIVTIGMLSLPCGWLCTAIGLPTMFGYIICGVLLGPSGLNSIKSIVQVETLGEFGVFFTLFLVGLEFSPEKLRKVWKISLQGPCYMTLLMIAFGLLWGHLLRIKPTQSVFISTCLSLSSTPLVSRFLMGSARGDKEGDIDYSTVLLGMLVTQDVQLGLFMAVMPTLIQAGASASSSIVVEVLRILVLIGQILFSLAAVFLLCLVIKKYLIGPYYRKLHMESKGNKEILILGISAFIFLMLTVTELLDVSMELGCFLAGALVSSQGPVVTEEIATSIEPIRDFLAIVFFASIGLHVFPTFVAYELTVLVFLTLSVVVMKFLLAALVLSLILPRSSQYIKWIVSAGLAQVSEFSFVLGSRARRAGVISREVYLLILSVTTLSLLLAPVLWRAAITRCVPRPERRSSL
# This is one part of the list.
# Legend:
# Experiment in all cases: log2 fold change, soluble protein after heating vs DMSO (PISA); higher = thermal stabilisation; K562 cells, 10 uM, 30 min; active = over 0.2 and 3.5 SD of the protein, either way, in both replicates (recomputed)
# [1] = compound: CS(=O)(=O)c1ccc(-c2cnc(N)c(C(=O)Nc3ccccc3)n2)cc1
# Summary of the method: (§1)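 Soluble protein was quantified by TMTpro 16plex LC-MS/MS after channel sums were equalised. It was obtained as the supernatant after 21,000xg for 90 min from pooled aliquots of K562 cells (2×10^6 cells/mL, 10 μM compound, 30 min) heated for 3 min across 48°C-58°C and extracted in PBS with 0.5% NP-40 at 4°C. Thermal stability values are relative to control samples and come from duplicates. They are given as log2 fold changes.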
# crizotinib = compound: C[C@@H](Oc1cc(-c2cnn(C3CCNCC3)c2)cnc1N)c1c(Cl)ccc(F)c1Cl [crizotinib]
# Summary of the method: as §1
# [2] = compound: C[C@@H]1COCCN1C2=NC(=NC(=C2)C3(CC3)S(=O)(=O)C)C4=C5C=CNC5=CC=C4
# Summary of the method: as §1
# [3] = compound: C[C@H](C1=CC=C(C=C1)C(=O)NC2=C3C=CNC3=NC=C2)N
# Summary of the method: as §1
# gandotinib = compound: Cc1cc(Nc2cc(CN3CCOCC3)c3nc(C)c(Cc4ccc(Cl)cc4F)n3n2)n[nH]1 [gandotinib]
# Summary of the method: as §1
# [4] = compound: Cc1cc(SCc2sc(-c3ccc(C(F)(F)F)cc3)nc2C)ccc1OCC(=O)O
# Summary of the method: as §1
# doramapimod = compound: Cc1ccc(-n2nc(C(C)(C)C)cc2NC(=O)Nc2ccc(OCCN3CCOCC3)c3ccccc23)cc1 [doramapimod]
# Summary of the method: as §1
# ispinesib = compound: Cc1ccc(C(=O)N(CCCN)[C@@H](c2nc3cc(Cl)ccc3c(=O)n2Cc2ccccc2)C(C)C)cc1 [ispinesib]
# Summary of the method: as §1
# bafetinib = compound: Cc1ccc(NC(=O)c2ccc(CN3CC[C@H](N(C)C)C3)c(C(F)(F)F)c2)cc1Nc1nccc(-c2cncnc2)n1 [bafetinib]
# Summary of the method: as §1
# [5] = compound: Cc1cccc(CC(=O)N2CCc3c2ccc(-c2cn(C)c4ncnc(N)c24)c3F)n1
# Summary of the method: as §1
# nilotinib = compound: Cc1cn(-c2cc(NC(=O)c3ccc(C)c(Nc4nccc(-c5cccnc5)n4)c3)cc(C(F)(F)F)c2)cn1 [nilotinib]
# Summary of the method: as §1
# [6] = compound: Cc1nc(Nc2n[nH]c3c2CN(C(=O)N[C@H](CN(C)C)c2ccccc2)C3(C)C)c2sccc2n1
# Summary of the method: as §1
# dasatinib = compound: Cc1nc(Nc2ncc(C(=O)Nc3c(C)cccc3Cl)s2)cc(N2CCN(CCO)CC2)n1 [dasatinib]
# Summary of the method: as §1
# [7] = compound: Cc1ncc(-c2ccnc(Nc3ccc(S(C)(=O)=O)cc3)n2)n1C(C)C
# Summary of the method: as §1
# [8] = compound: Cn1cc(-c2ccc3c(c2)CCN3C(=O)Cc2cccc(C(F)(F)F)c2)c2c(N)ncnc21
# Summary of the method: as §1
# [9] = compound: Cn1cc(-c2ccc3nnc(C(F)(F)c4ccc5ncccc5c4)n3n2)cn1
# Summary of the method: as §1
# tipifarnib = compound: Cn1cncc1[C@@](N)(c1ccc(Cl)cc1)c1ccc2c(c1)c(-c1cccc(Cl)c1)cc(=O)n2C [tipifarnib]
# Summary of the method: as §1
# mubritinib = compound: FC(F)(F)c1ccc(/C=C/c2nc(COc3ccc(CCCCn4ccnn4)cc3)co2)cc1 [mubritinib]
# Summary of the method: as §1
# duvelisib = compound: C[C@H](Nc1ncnc2nc[nH]c12)c1cc2cccc(Cl)c2c(=O)n1-c1ccccc1 [duvelisib]
# Summary of the method: as §1
# tozasertib = compound: Cc1cc(Nc2cc(N3CCN(C)CC3)nc(Sc3ccc(NC(=O)C4CC4)cc3)n2)n[nH]1 [tozasertib]
# Summary of the method: as §1
Target,log2 fold change [1],log2 fold change (crizotinib),log2 fold change [2],log2 fold change [3],log2 fold change (gandotinib),log2 fold change [4],log2 fold change (doramapimod),log2 fold change (ispinesib),log2 fold change (bafetinib),log2 fold change [5],log2 fold change (nilotinib),log2 fold change [6],log2 fold change (dasatinib),log2 fold change [7],log2 fold change [8],log2 fold change [9],log2 fold change (tipifarnib),log2 fold change (mubritinib),log2 fold change (duvelisib),log2 fold change (tozasertib)
TMEM208 (UniProt Q9BTX3),inactive: -0.09,inactive: -0.119,inactive: 0.134,inactive: -0.004,inactive: 0.086,inactive: 0.076,inactive: 0.019,inactive: -0.243,inactive: -0.131,inactive: 0.097,inactive: -0.101,inactive: 0.092,inactive: -0.19,inactive: 0.185,inactive: -0.024,inactive: 0.01,inactive: -0.223,inactive: 0.062,–,–
TMPO (UniProt P42166),inactive: 0.032,inactive: -0.005,inactive: 0.022,inactive: 0.187,inactive: -0.079,inactive: -0.013,inactive: -0.019,inactive: -0.046,inactive: -0.066,inactive: 0.024,inactive: 0.001,inactive: -0.068,inactive: -0.099,inactive: 0.004,inactive: 0.03,inactive: -0.037,inactive: 0.006,inactive: 0.054,inactive: -0.055,inactive: -0.059
TMA16 (UniProt Q96EY4),inactive: -0.02,inactive: -0.016,inactive: -0.302,inactive: 0.356,inactive: 0.206,inactive: 0.021,inactive: -0.024,inactive: -0.178,inactive: 0.187,inactive: 0,inactive: -0.061,inactive: 0.163,inactive: 0.112,inactive: 0.032,inactive: -0.2,inactive: -0.163,inactive: 0.118,inactive: -0.033,inactive: -0.078,inactive: 0.051
TMX1 (UniProt Q9H3N1),inactive: 0.011,inactive: 0.032,inactive: 0.013,inactive: 0.012,inactive: -0.059,inactive: -0.022,inactive: -0.009,inactive: 0.032,inactive: -0.014,inactive: -0.07,inactive: -0.006,inactive: 0.035,inactive: 0.017,inactive: -0.027,inactive: -0.001,inactive: -0.013,inactive: 0.038,inactive: 0.003,inactive: -0.005,inactive: 0.006
TMEM259 (UniProt Q4ZIN3),inactive: 0.008,inactive: 0.026,inactive: 0.016,inactive: -0.005,inactive: 0.067,inactive: 0.066,inactive: 0.07,inactive: -0.059,inactive: -0.141,inactive: -0.006,inactive: -0.074,inactive: -0.002,inactive: -0.014,inactive: -0.015,inactive: 0.025,inactive: 0.02,inactive: 0.038,inactive: -0.019,inactive: 0.047,inactive: 0.037
TMEM164 (UniProt Q5U3C3),inactive: 0,inactive: -0.036,inactive: 0.139,inactive: 0.05,inactive: -0.204,inactive: 0.027,inactive: 0.091,–,inactive: -0.097,inactive: -0.155,inactive: 0.023,inactive: -0.021,inactive: 0.048,inactive: 0.037,inactive: 0.002,–,inactive: 0.059,inactive: -0.067,active: 0.601,–
TMTC3 (UniProt Q6ZXV5),inactive: 0.054,inactive: -0.088,inactive: -0.052,inactive: 0.072,inactive: -0.039,inactive: 0.038,inactive: 0.018,inactive: -0.188,inactive: -0.07,inactive: -0.02,inactive: -0.036,inactive: 0,inactive: -0.055,inactive: 0.015,inactive: -0.051,inactive: 0.061,inactive: -0.018,inactive: 0.011,–,–
TLE4 isoform 3 (UniProt Q04727),inactive: -0.039,inactive: 0.058,inactive: 0.002,inactive: -0.045,inactive: 0.015,inactive: -0.005,inactive: -0.026,inactive: 0.045,inactive: -0.01,inactive: -0.005,inactive: -0.003,inactive: 0.003,inactive: -0.036,inactive: -0.038,inactive: 0.033,inactive: 0.045,inactive: 0.007,inactive: 0.031,inactive: 0.069,inactive: -0.007
TMEM87B (UniProt Q96K49),inactive: 0.01,inactive: -0.323,inactive: -0.063,inactive: -0.033,inactive: -0.11,inactive: 0.071,inactive: -0.059,active: -0.406,inactive: -0.138,inactive: 0.015,inactive: 0.037,inactive: -0.072,inactive: 0.002,inactive: 0.05,inactive: -0.077,inactive: -0.08,inactive: 0.069,inactive: 0.006,–,–
TMEM168 (UniProt Q9H0V1),inactive: -0.012,inactive: 0.051,inactive: -0.011,inactive: -0.037,inactive: -0.07,inactive: 0.058,inactive: -0.004,inactive: 0.024,inactive: -0.04,inactive: 0.047,inactive: 0.037,inactive: 0,inactive: 0.085,inactive: 0.022,inactive: 0.023,inactive: 0.056,inactive: -0.031,inactive: 0.038,inactive: -0.136,inactive: 0.025
TLK1 (UniProt Q9UKI8),inactive: -0.058,inactive: -0.008,inactive: 0.101,inactive: -0.028,inactive: 0.145,inactive: 0.028,inactive: -0.023,inactive: 0.026,inactive: -0.071,inactive: 0,inactive: -0.073,active: -0.399,inactive: -0.028,inactive: 0.007,inactive: 0.06,inactive: 0.026,inactive: 0.01,inactive: 0.011,–,–
TNFAIP8 isoform 4 (UniProt O95379),inactive: 0.005,inactive: 0,inactive: 0.122,inactive: -0.099,inactive: -0.073,inactive: -0.046,inactive: -0.016,inactive: -0.046,inactive: -0.079,inactive: 0.014,inactive: -0.045,inactive: -0.095,inactive: -0.109,inactive: 0.007,inactive: 0.047,inactive: 0.005,inactive: -0.023,inactive: 0.031,–,–
TMEM192 (UniProt Q8IY95),inactive: 0.074,active: -0.45,inactive: 0.043,inactive: 0.04,inactive: 0.059,inactive: -0.022,inactive: 0.024,active: -0.318,inactive: -0.148,inactive: -0.083,inactive: 0.019,inactive: -0.002,inactive: 0.109,inactive: -0.042,inactive: -0.034,inactive: -0.051,inactive: 0.051,inactive: -0.032,–,–
TMEM223 (UniProt A0PJW6),inactive: -0.008,inactive: -0.045,inactive: 0.038,inactive: 0.002,inactive: -0.14,inactive: 0,inactive: 0.015,active: -0.254,inactive: -0.156,inactive: -0.005,inactive: 0.032,inactive: 0.033,inactive: -0.052,inactive: -0.079,inactive: -0.025,inactive: 0.038,inactive: 0.013,inactive: 0.044,–,–
TMEM161A (UniProt Q9NX61),inactive: -0.038,inactive: -0.026,inactive: -0.006,inactive: 0.001,inactive: -0.156,inactive: 0.051,inactive: -0.023,inactive: -0.251,inactive: -0.156,inactive: 0.043,inactive: -0.157,inactive: 0.023,inactive: -0.09,inactive: -0.021,inactive: -0.05,inactive: -0.025,inactive: -0.165,inactive: 0.027,–,–
TMEM143 (UniProt Q96AN5),inactive: 0,inactive: 0.218,–,–,–,–,inactive: 0.023,–,–,–,–,–,–,–,–,–,–,inactive: -0.148,–,inactive: -0.045
TMEM184C (UniProt Q9NVA4),inactive: 0.117,inactive: -0.267,inactive: 0.019,inactive: -0.049,inactive: -0.038,inactive: 0.036,inactive: 0.019,active: -0.365,inactive: -0.132,inactive: -0.111,inactive: -0.007,inactive: -0.047,inactive: 0.116,inactive: -0.009,inactive: 0.15,inactive: -0.092,–,inactive: 0.01,–,–
TMCO3 (UniProt Q6UWJ1),inactive: -0.086,–,inactive: -0.026,–,inactive: -0.136,inactive: -0.048,–,inactive: -0.142,–,inactive: -0.203,–,–,inactive: 0.058,–,–,inactive: 0.037,–,inactive: -0.162,inactive: 0.115,–

# 2 records picked at random from those above, as already listed:
Target,log2 fold change [1],log2 fold change (crizotinib),log2 fold change [2],log2 fold change [3],log2 fold change (gandotinib),log2 fold change [4],log2 fold change (doramapimod),log2 fold change (ispinesib),log2 fold change (bafetinib),log2 fold change [5],log2 fold change (nilotinib),log2 fold change [6],log2 fold change (dasatinib),log2 fold change [7],log2 fold change [8],log2 fold change [9],log2 fold change (tipifarnib),log2 fold change (mubritinib),log2 fold change (duvelisib),log2 fold change (tozasertib)
TMX1 (UniProt Q9H3N1),inactive: 0.011,inactive: 0.032,inactive: 0.013,inactive: 0.012,inactive: -0.059,inactive: -0.022,inactive: -0.009,inactive: 0.032,inactive: -0.014,inactive: -0.07,inactive: -0.006,inactive: 0.035,inactive: 0.017,inactive: -0.027,inactive: -0.001,inactive: -0.013,inactive: 0.038,inactive: 0.003,inactive: -0.005,inactive: 0.006
TLK1 (UniProt Q9UKI8),inactive: -0.058,inactive: -0.008,inactive: 0.101,inactive: -0.028,inactive: 0.145,inactive: 0.028,inactive: -0.023,inactive: 0.026,inactive: -0.071,inactive: 0,inactive: -0.073,active: -0.399,inactive: -0.028,inactive: 0.007,inactive: 0.06,inactive: 0.026,inactive: 0.01,inactive: 0.011,–,–
